According to patent US10156566B2, “Detoxification of microbial virulence factors in oral cavity” (priority 2015, dated 2018):

Tested on: Lipopolysaccharide

Question: For `CC(C)(C)CC(C)(C)c1ccc(OCCOCC[N+](C)(C)Cc2ccccc2)cc1` [Benzethonium chloride, reference compound], which inhibition is on record?
Answer: 94.6%
